Laboratory results published in paper doi:10.1101/2020.01.27.920827 (bioRxiv, 2020).
Where two headings read alike, the source gives them in different places. No constants are given. Whether binding was seen depends on the method and setting.

Sequences of proteins named here, by UniProt entry; tags and fusion partners are left off. A change or cut given only in a name is not applied to a line headed by its entry. A line that says so, or that is headed by a name, gives the form on record, which may keep a tag or linker. Residues count along the entry.
epsin1 ENTH domain, wild type (Rat Epsin1 WT ENTH 1-164) (O88339, residues 1-164): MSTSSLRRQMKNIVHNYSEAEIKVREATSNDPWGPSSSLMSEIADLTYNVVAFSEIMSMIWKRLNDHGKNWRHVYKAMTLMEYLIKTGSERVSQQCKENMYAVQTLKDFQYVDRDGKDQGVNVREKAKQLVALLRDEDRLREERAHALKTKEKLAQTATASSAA
epsin1 ENTH domain R114A (O88339, form named): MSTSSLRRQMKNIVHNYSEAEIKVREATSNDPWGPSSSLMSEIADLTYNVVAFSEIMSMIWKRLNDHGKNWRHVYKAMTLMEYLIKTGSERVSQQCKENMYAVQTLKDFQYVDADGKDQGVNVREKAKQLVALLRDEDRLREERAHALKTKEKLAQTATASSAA

Columns and labels:
Assay in all cases: SDS-resistant oligomer bands on SDS-PAGE after liposome co-sedimentation
[1] = molecular target: epsin1 ENTH domain R114A (rat) (UniProt O88339)
[2] = molecular target: epsin1 ENTH domain, wild type (Rat Epsin1 WT ENTH 1-164) (rat) (UniProt O88339)
[3] = molecular target: epsin1 ENTH domain, wild type (Rat Epsin1 WT ENTH 1-164) (rat) (UniProt O88339); remark: listed apart in the source

Row | Substance | binding [1] | binding [2] | binding [3]
1 | epsin1 ENTH domain R114A (from UniProt O88339 1-164) (domain or fragment) | no binding (tested: 20 μM) |  | 
2 | epsin1 ENTH domain, wild type (Rat Epsin1 WT ENTH 1-164) (from UniProt O88339 1-164) (domain or fragment) |  | no binding (condition: LUVs without PS) | no binding (condition: without LUVs)
